Reference: patent publication US20100249372A1 (WISCONSIN ALUMNI RESEARCH FOUNDATION, published 2010)
Results are given in words; binding and its absence hold for the method and conditions named. Some binding calls cover weakened binding; strength is not graded here. For some assays here: Sequences can lack the tags named with a protein.

What was measured:
[1] = target: GST fusion of rat SV2C amino acids 529-562 (rat); assay: summary of the example (GST pull-down)
[2] = target: GST fusion of rat SV2C amino acids 529-566 (rat); assay: summary of the example (GST pull-down)
[3] = target: GST fusion of rat SV2C amino acids 454-546 (rat) (UniProt Q9Z2I6); assay: summary of the example (GST pull-down)
[4] = target: T1, GST-tagged 4th luminal domain (L4) of rat SV2C (rat) (UniProt Q9Z2I6); assay: pull-down with immobilised GST-L4, western blot
T1 sequence: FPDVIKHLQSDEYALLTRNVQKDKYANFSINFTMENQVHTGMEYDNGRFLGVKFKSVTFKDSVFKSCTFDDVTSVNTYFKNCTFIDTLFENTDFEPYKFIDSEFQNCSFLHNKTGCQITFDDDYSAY

[5] = target: GST-tagged 4th luminal domain (L4) of rat SV2A (rat) (UniProt Q02563); assay: pull-down with immobilised GST-L4, western blot
[6] = target: GST-tagged 4th luminal domain (L4) of rat SV2B (rat) (UniProt Q63564); assay: pull-down with immobilised GST-L4, western blot
[7] = target: rat SV2B, full length (rat) (UniProt Q63564); assay: summary of the example
[8] = target: T2, rat SV2C, full length (rat) (UniProt Q9Z2I6); assay: summary of the example
T2 sequence: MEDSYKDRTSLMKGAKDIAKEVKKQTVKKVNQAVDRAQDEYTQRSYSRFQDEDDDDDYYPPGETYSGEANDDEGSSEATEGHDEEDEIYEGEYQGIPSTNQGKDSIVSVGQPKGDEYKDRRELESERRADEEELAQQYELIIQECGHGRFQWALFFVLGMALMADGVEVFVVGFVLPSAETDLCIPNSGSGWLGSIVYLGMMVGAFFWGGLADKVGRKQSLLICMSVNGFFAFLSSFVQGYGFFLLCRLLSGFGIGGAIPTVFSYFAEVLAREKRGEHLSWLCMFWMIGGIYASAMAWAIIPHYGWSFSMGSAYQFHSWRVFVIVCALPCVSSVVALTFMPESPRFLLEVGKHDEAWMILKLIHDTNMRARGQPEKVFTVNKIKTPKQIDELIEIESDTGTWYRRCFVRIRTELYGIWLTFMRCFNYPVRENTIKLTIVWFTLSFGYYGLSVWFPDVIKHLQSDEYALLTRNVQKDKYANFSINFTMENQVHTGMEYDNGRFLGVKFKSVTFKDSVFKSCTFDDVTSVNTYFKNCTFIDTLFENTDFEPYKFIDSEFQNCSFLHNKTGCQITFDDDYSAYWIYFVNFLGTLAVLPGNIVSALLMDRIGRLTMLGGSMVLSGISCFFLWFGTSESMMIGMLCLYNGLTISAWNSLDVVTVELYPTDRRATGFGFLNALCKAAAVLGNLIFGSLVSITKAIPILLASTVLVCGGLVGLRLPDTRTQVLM

[9] = target: rat SV2A, full length (rat) (UniProt Q02563); assay: summary of the example
[10] = target: rat SV2B, full length (rat) (UniProt Q63564); assay: immunostaining of transfected SV2A/B double knockout hippocampal neurons
[11] = target: T2, rat SV2C, full length (rat); assay: as above
[12] = target: rat SV2A, full length (rat) (UniProt Q02563); assay: as above
[13] = target: rat SV2B, full length (rat) (UniProt Q63564); assay: description's account of the experiments
[14] = target: T2, rat SV2C, full length (rat); assay: description's account of the experiments
[15] = target: rat SV2A, full length (rat) (UniProt Q02563); assay: description's account of the experiments
[16] = target: GST fusion of rat SV2C amino acids 529-562 (rat); assay: description's account of the truncation experiments
[17] = target: GST fusion of rat SV2C amino acids 529-566 (rat); assay: as above
[18] = target: GST fusion of rat SV2C amino acids 454-546 (rat) (UniProt Q9Z2I6); assay: as above
[19] = target: mouse SV2A, endogenous (mouse) (UniProt Q9JIS5); assay: immunofluorescence of BoNT/A on hippocampal neurons of SV2 knockout mouse lines
[20] = target: mouse SV2B, endogenous (mouse) (UniProt Q8BG39); assay: as above

Measured: binding

Botulinum neurotoxin A (from UniProt P0DPI1 2-1296)
binds: all assays above
